Results on four substances are retold here after paper PMC10200693.

The chains behind the UniProt entries cited, without tags or fusion partners.
UniProt P35579: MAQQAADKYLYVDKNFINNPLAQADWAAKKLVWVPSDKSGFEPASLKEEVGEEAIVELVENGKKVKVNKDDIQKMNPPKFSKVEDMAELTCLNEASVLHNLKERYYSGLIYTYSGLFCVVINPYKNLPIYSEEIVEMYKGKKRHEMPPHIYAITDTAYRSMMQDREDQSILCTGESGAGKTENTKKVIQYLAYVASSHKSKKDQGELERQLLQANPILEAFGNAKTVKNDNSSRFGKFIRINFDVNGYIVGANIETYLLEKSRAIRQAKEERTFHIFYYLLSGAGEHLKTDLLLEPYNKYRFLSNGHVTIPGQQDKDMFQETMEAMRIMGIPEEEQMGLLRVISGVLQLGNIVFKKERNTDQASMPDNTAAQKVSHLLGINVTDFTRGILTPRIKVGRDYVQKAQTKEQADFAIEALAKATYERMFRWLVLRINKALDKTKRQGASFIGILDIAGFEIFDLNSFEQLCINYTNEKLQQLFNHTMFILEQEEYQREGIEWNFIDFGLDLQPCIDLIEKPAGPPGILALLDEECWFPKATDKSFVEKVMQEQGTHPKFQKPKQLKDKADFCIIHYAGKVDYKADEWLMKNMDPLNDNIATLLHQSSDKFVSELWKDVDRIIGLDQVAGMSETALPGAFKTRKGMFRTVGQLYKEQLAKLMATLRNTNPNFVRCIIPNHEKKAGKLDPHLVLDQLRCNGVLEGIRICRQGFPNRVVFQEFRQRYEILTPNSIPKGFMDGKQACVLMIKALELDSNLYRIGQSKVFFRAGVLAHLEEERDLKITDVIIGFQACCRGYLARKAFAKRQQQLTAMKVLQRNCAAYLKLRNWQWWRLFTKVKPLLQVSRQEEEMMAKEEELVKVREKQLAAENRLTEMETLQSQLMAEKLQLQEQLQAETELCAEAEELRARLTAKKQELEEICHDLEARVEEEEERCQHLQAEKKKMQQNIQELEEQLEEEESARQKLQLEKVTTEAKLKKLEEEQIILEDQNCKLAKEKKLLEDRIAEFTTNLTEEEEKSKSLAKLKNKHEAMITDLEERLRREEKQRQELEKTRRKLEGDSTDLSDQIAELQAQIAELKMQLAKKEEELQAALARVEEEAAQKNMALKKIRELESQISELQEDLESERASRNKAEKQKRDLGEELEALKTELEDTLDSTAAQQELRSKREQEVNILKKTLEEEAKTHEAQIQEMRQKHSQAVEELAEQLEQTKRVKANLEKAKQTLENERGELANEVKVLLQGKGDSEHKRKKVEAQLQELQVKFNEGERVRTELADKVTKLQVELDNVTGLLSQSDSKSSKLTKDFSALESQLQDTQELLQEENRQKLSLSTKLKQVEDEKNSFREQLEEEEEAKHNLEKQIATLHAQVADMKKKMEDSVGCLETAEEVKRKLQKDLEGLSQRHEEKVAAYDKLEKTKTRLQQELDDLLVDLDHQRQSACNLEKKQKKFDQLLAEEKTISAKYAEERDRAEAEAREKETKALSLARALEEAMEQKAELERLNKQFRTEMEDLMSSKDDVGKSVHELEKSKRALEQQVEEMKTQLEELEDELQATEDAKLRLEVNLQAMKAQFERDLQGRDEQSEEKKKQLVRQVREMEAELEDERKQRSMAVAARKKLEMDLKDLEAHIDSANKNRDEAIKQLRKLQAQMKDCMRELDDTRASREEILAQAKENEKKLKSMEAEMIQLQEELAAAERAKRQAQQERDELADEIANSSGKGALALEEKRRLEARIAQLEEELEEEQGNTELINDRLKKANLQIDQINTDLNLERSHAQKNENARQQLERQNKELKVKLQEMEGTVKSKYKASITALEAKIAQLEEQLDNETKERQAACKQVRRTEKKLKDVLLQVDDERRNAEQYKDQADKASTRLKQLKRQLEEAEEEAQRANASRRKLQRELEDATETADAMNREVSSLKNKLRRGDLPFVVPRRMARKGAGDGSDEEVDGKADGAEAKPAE
UniProt O75396: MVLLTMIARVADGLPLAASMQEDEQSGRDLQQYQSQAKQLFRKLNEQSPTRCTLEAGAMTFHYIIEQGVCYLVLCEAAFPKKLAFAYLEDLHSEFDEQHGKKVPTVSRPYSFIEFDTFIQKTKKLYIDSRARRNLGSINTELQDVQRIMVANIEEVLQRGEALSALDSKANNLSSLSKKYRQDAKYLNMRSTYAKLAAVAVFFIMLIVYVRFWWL
UniProt Q9Y6J0: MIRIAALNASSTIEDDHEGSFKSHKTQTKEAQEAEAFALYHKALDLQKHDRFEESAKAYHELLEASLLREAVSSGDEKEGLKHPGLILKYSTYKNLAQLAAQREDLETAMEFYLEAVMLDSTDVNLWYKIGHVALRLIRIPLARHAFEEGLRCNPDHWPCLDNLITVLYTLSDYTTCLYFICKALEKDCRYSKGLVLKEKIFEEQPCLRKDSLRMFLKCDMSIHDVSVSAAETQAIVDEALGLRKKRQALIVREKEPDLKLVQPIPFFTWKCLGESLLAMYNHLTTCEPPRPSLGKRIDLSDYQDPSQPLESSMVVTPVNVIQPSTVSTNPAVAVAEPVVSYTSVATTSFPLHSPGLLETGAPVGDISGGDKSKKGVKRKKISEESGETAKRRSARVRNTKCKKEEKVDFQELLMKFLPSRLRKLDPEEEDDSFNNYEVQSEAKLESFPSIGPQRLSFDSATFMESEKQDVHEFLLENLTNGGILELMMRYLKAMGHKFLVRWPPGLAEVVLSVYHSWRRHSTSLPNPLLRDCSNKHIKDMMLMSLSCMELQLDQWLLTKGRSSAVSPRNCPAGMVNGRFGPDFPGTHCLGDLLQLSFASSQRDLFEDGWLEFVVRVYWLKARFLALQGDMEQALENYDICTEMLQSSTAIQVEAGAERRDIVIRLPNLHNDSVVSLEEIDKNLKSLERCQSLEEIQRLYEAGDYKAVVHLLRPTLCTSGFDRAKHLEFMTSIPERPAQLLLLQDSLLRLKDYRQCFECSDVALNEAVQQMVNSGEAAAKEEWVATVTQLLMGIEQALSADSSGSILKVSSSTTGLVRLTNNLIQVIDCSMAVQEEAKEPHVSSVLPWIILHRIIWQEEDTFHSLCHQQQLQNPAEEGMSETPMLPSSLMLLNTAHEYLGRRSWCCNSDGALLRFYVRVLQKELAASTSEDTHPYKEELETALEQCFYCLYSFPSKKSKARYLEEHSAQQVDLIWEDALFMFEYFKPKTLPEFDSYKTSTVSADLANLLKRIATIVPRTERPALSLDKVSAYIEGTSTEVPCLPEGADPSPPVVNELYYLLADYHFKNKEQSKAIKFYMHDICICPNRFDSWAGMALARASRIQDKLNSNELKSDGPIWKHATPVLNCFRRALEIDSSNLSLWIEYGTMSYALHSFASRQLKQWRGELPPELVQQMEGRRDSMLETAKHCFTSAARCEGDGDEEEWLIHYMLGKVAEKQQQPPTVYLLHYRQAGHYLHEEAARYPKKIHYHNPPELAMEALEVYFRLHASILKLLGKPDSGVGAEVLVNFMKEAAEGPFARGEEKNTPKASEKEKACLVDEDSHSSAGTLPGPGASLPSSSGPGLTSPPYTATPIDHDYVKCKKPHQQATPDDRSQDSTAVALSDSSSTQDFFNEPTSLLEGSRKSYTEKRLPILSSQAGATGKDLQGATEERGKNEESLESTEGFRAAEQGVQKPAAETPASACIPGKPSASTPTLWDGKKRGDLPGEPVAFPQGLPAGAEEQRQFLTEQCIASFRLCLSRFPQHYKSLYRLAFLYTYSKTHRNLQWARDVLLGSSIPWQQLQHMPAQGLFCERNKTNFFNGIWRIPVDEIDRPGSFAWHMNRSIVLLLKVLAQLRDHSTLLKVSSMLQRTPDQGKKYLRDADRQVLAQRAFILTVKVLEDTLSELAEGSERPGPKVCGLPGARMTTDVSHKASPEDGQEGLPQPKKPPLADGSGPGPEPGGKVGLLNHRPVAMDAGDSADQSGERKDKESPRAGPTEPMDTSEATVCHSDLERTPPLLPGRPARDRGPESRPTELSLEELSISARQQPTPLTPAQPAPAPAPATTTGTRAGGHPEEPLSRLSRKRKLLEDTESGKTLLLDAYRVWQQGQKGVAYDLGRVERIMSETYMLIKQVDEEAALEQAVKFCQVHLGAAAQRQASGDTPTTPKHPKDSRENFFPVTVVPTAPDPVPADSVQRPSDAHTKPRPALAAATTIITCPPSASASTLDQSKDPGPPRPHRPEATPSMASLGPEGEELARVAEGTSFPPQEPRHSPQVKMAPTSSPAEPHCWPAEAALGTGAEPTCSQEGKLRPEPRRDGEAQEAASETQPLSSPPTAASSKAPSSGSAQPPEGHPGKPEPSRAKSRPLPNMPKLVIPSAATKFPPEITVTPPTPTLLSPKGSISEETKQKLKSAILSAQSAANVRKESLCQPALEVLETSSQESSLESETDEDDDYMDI

No constants are given. Whether binding was seen depends on the method and setting. In cells and extracts the contact can be indirect. Here binding means that the protein was enriched with, or labelled near, the bait; the list need not be complete.

The experiment addresses increased sodium tolerance 1 (IST1) (human (endogenous in moDCs)) (UniProt P53990). In words: affinity purification with mass spectrometry; endogenous IST1 immunoprecipitated from lysates of moDCs cultured overnight with or without 10% FBS (rabbit anti-IST1, protein A/G magnetic beads, 4°C; lysis buffer 200 mM NaCl, 75 mM Tris-HCl, 15 mM NaF, 7.5 mM EDTA, 7.5 mM EGTA, 0.15% Tween20); eluted with 0.2 M glycine pH 2-3; four donors; compared with beads only.

Turning to myosin-9 (from UniProt P35579 1-1960), the binding result is “binds”.

Turning to Sec22b (from UniProt O75396 1-215), the binding entry is on record as “binds”. “calcineurin-binding protein cabin-1 (from UniProt Q9Y6J0 1-2220)”: the binding entry is “binds”. On to tapasin (from UniProt O15533 21-448), for which the binding result is “binds”.
